Measured values published in PubChem BioAssay AID330 (DTP/NCI, 2004).
The list does not hold the whole screen: it is rich in T/C values a quarter to a half above the control, in often repeated tests (any T/C) and in doses without a T/C. Further doses and runs are listed elsewhere. T/C is the treated group as % of the vehicle group. Some entries give survivors of the animals treated and no T/C: the source holds a T/C of zero for them, seemingly a mark for toxic or unscored doses. Some doses without a T/C left all or most animals alive at the check, yet need not have been tolerated: the source hardly ever lists a survival T/C far under the control, and the zero likely stands for such cases as well. Counts of survivors are from the toxicity check (mostly the fifth day) where no day follows; animals may have died later. Schedules are NCI's codes, taken here to give the interval after Q, in days (D) or hours (H), and the number of doses after X. Some entries hold several experiments; the results are listed from low to high. For survival time, this PubChem deposit counts one and a half times the control or more as active, and values a quarter to a half above the control carry no call in these data; other NCI protocols may use other cut-offs. Some T/C values are followed by the survivors on the day toxicity was checked, most often the fifth; where none is given, no animal had died by that day.

Test system: P388 leukemia ip, CD2F1 mice, survival T/C
Test: NCI In Vivo Anticancer Drug Screen. Data for tumor model P388 Leukemia (intraperitoneal) in CD2F1 (CDF1) mice
Details: T/C endpoint: median survival time, higher T/C = longer survival
[1] = dose: 3.75 mg/kg/injection, schedule: Q01DX009 (ip), vehicle: saline
[2] = dose: 7.5 mg/kg/injection, schedule: Q01DX009 (ip), vehicle: saline
[3] = dose: 15.0 mg/kg/injection, schedule: Q01DX009 (ip), vehicle: saline
[4] = dose: 50.0 mg/kg/injection, schedule: Q04DX003 (ip), vehicle: saline
[5] = dose: 25.0 mg/kg/injection, schedule: Q01DX009 (ip), vehicle: distilled water + Tween-80
[6] = dose: 1.0 mg/kg/injection, schedule: Q01DX009 (ip), vehicle: water
[7] = dose: 2.0 mg/kg/injection, schedule: Q01DX009 (ip), vehicle: water

In the case of O=P(N1CCCCCC1)(N1CC1)N1CC1, the survivor count (dose: 1.87 mg/kg/injection, schedule: Q01DX009 (ip), vehicle: saline) is reported as 6 of 6, the T/C (dose: 1.88 mg/kg/injection, schedule: Q04DX003 (ip), vehicle: saline) is reported as 134 % of control and the T/C [1] is reported as 120, 125, 145 % of control. The survivor count [1] was 6 of 6, the T/C [2] was 157, 169, 175 % of control and the survivor count [2] was 6 of 6. For the same compound, the T/C (dose: 7.5 mg/kg/injection, schedule: Q04DX003 (ip), vehicle: saline) was 133 % of control, the T/C [3] was 120, 209, 216 % of control and the survivor count [3] was 6 of 6. The survivor count (dose: 30.0 mg/kg/injection, schedule: Q01DX009 (ip), vehicle: saline) was 6 of 6, the survivor count [4] was 6 of 6 and the survivor count (dose: 60.0 mg/kg/injection, schedule: Q04DX003 (ip), vehicle: saline) was 5 of 6.
In the case of C/C1=C/C(C)C(O)C(O)C(=O)C2(C)CNC3=C(O2)C(=O)c2c(cc(C)c(O)c2C1=O)C3=O (stereo not drawn), the T/C (dose: 2.0 mg/kg/injection, schedule: Q01DX009 (ip), vehicle: distilled water + Tween-80) is reported as 132 % of control and the T/C (dose: 4.0 mg/kg/injection, schedule: Q01DX009 (ip), vehicle: distilled water + Tween-80) is reported as 137 % of control.
With Cc1ccc(N=C(N)N/N=C/c2ccc3c(c2)Cc2ccccc2-3)cc1 the survivor count (dose: 100.0 mg/kg/injection, schedule: Q04DX002 (ip), vehicle: saline with Tween-80) was 1 of 6.
In the case of Cc1ccc(NC(=S)C#N)c(C)c1, the survivor count (dose: 120.0 mg/kg/injection, schedule: Q01DX005 (ip), vehicle: saline with Tween-80) is reported as 3 of 6 and the survivor count (dose: 240.0 mg/kg/injection, schedule: Q01DX005 (ip), vehicle: saline with Tween-80) is reported as 0 of 6.
[N-]=[N+]=[N-] was tested, and the survivor count (dose: 12.0 mg/kg/injection, schedule: Q01DX009 (ip), vehicle: saline with Tween-80) was 3 of 6, the survivor count (dose: 12.5 mg/kg/injection, schedule: Q04DX003 (ip), vehicle: saline) was 6 of 6 and the survivor count (dose: 25.0 mg/kg/injection, schedule: Q04DX003 (ip), vehicle: saline) was 1 of 6. The survivor count [4] was 0 of 6.
In the case of Cc1cc(NCCCCCCCCNc2cc(C)nc3cc(N(C)C)ccc23)c2ccc(N(C)C)cc2n1, the T/C (dose: 50.0 mg/kg/injection, schedule: Q04DX002 (ip), vehicle: distilled water + Tween-80 + alcohol) is reported as 142 % of control, the survivor count (dose: 100.0 mg/kg/injection, schedule: Q04DX002 (ip), vehicle: distilled water + Tween-80 + alcohol) is reported as 1 of 6 and the survivor count (dose: 200.0 mg/kg/injection, schedule: Q04DX002 (ip), vehicle: distilled water + Tween-80 + alcohol) is reported as 0 of 6. The survivor count (dose: 400.0 mg/kg/injection, schedule: Q04DX002 (ip), vehicle: distilled water + Tween-80 + alcohol) was 0 of 6.
In the case of C=CC(=O)OCCOCN(COCCOC(=O)C=C)c1nc(N(COCCOC(=O)C=C)COCCOC(=O)C=C)nc(N(COCCOC(=O)C=C)COCCOC(=O)C=C)n1, the survivor count (dose: 200.0 mg/kg/injection, schedule: Q01DX005 (ip), vehicle: saline with Tween-80) is reported as 1 of 6.
In the case of Cc1ccc(C)n1-c1ccsc1C(=O)NNC(=O)C(Cl)Cl, the survivor count (dose: 60.0 mg/kg/injection, schedule: Q01DX005 (ip), vehicle: Klucel (hydroxypropylcellulose) (HPC)) is reported as 0 of 6, the survivor count (dose: 120.0 mg/kg/injection, schedule: Q01DX005 (ip), vehicle: Klucel (hydroxypropylcellulose) (HPC)) is reported as 0 of 6 and the survivor count (dose: 240.0 mg/kg/injection, schedule: Q01DX005 (ip), vehicle: Klucel (hydroxypropylcellulose) (HPC)) is reported as 0 of 6.
CSc1nc(=O)[nH]nc1SCc1ccccc1 was tested, and the T/C (dose: 400.0 mg/kg/injection, schedule: Q01DX009 (ip), vehicle: Klucel (hydroxypropylcellulose) (HPC)) was 133 and 138 % of control.
CCCCNC(=O)OCC1=C(COC(=O)NCCCC)C2OC1C(C(=O)OC)=C2C(=O)OC was tested, and the T/C (dose: 12.5 mg/kg/injection, schedule: Q01DX009 (ip), vehicle: distilled water + Tween-80) was 86, 98, 105, 107 % of control, the T/C [5] was 97, 99, 123 % of control and the survivor count [5] was 6 of 6. For the same compound, the survivor count (dose: 50.0 mg/kg/injection, schedule: Q01DX009 (ip), vehicle: distilled water + Tween-80) was 6 of 6, the survivor count (dose: 100.0 mg/kg/injection, schedule: Q01DX009 (ip), vehicle: distilled water + Tween-80) was 6 of 6 and the survivor count (dose: 200.0 mg/kg/injection, schedule: Q01DX009 (ip), vehicle: distilled water + Tween-80) was 2 of 6.
CC(=O)Oc1c(OC(C)=O)c(C=O)c2c(OC(C)=O)c(-c3c(C)cc4c(C(C)C)c(OC(C)=O)c(OC(C)=O)c(C=O)c4c3OC(C)=O)c(C)cc2c1C(C)C was tested, and the survivor count (dose: 100.0 mg/kg/injection, schedule: Q01DX005 (ip), vehicle: Klucel (hydroxypropylcellulose) (HPC)) was 0 of 6 and the survivor count (dose: 200.0 mg/kg/injection, schedule: Q01DX005 (ip), vehicle: Klucel (hydroxypropylcellulose) (HPC)) was 0 of 6.
In the case of CCOC(=O)C1=C(SC)SC(C(=O)OCC)C2C=C(C)C=CN12 (stereo not drawn), the survivor count (dose: 120.0 mg/kg/injection, schedule: Q01DX005 (ip), vehicle: Klucel + Tween-80) is reported as 3 of 6 and the survivor count (dose: 240.0 mg/kg/injection, schedule: Q01DX005 (ip), vehicle: Klucel + Tween-80) is reported as 0 of 6.
CCC1CC2CN(CCc3c([nH]c4ccccc34)C(C(=O)OC)(c3cc4c(cc3OC)N(C)C3C(O)(C(=O)OC)C(OC(C)=O)C5(CC)C=CCN6CCC43C65)C2)C1 (stereo not drawn) was tested, and the T/C (dose: 0.1 mg/kg/injection, schedule: Q01DX009 (ip), vehicle: Klucel (hydroxypropylcellulose) (HPC)) was 141 % of control, the T/C (dose: 0.13 mg/kg/injection, schedule: Q01DX009 (ip), vehicle: water) was 147 % of control and the T/C (dose: 0.2 mg/kg/injection, schedule: Q01DX009 (ip), vehicle: Klucel (hydroxypropylcellulose) (HPC)) was 141 % of control. The T/C (dose: 0.25 mg/kg/injection, schedule: Q01DX009 (ip), vehicle: water) was 109, 127, 137, 145 % of control, the T/C (dose: 0.5 mg/kg/injection, schedule: Q01DX009 (ip), vehicle: water) was 109, 133, 157, 190 % of control and the T/C [6] was 109, 116, 193 % of control [5 of 6 alive]. For the same compound, the survivor count [6] was 4 of 6, the survivor count (dose: 1.6 mg/kg/injection, schedule: Q01DX009 (ip), vehicle: Klucel (hydroxypropylcellulose) (HPC)) was 6 of 6 and the T/C [7] was 91 [5 of 6 alive] and 173 % of control. The survivor count [7] was 1 of 6 and 2 of 6, the survivor count (dose: 3.2 mg/kg/injection, schedule: Q01DX009 (ip), vehicle: Klucel (hydroxypropylcellulose) (HPC)) was 6 of 6 and the survivor count (dose: 4.0 mg/kg/injection, schedule: Q01DX009 (ip), vehicle: water) was 1 of 6 and 3 of 6. For the same compound, the survivor count (dose: 4.0 mg/kg/injection, schedule: Q04DX003 (ip), vehicle: water) was 6 of 6, the survivor count (dose: 6.4 mg/kg/injection, schedule: Q01DX009 (ip), vehicle: Klucel (hydroxypropylcellulose) (HPC)) was 0 of 6 and the survivor count (dose: 12.8 mg/kg/injection, schedule: Q01DX009 (ip), vehicle: Klucel (hydroxypropylcellulose) (HPC)) was 1 of 6.
In the case of C(=C\c1ccccc1)/C[P+](c1ccccc1)(c1ccccc1)c1ccccc1, the survivor count (dose: 5.0 mg/kg/injection, schedule: Q01DX009 (ip), vehicle: saline with Tween-80) is reported as 4 of 6, the survivor count (dose: 10.0 mg/kg/injection, schedule: Q01DX009 (ip), vehicle: saline with Tween-80) is reported as 4 of 6 and the survivor count (dose: 20.0 mg/kg/injection, schedule: Q01DX009 (ip), vehicle: saline with Tween-80) is reported as 4 of 6.
With C[N+](C)(Cc1ccccc1)[N-]C(=N)c1ccccc1 the survivor count (dose: 200.0 mg/kg/injection, schedule: Q04DX003 (ip), vehicle: Klucel (hydroxypropylcellulose) (HPC)) was 0 of 6 and the survivor count (dose: 400.0 mg/kg/injection, schedule: Q04DX003 (ip), vehicle: Klucel (hydroxypropylcellulose) (HPC)) was 0 of 6.
In the case of O=C1C=C(Cl)C(=O)C(c2ccc(Cl)cc2)=C1, the survivor count (dose: 25.0 mg/kg/injection, schedule: Q01DX009 (ip), vehicle: Klucel (hydroxypropylcellulose) (HPC)) is reported as 6 of 6, the survivor count (dose: 100.0 mg/kg/injection, schedule: Q01DX009 (ip), vehicle: Klucel (hydroxypropylcellulose) (HPC)) is reported as 1 of 6 and the survivor count (dose: 200.0 mg/kg/injection, schedule: Q01DX009 (ip), vehicle: Klucel (hydroxypropylcellulose) (HPC)) is reported as 0 of 6.
